This experiment is described as follows: qHTS Assay to Find Inhibitors of Chronic Active B-Cell Receptor Signaling. The conditions noted are these: ABC-DLBCL IkBa-CBG/CBR reporter, luminescence ratio (green luciferase fused to IkBa over red control in TMD8 lymphoma cells), 4 h. The procedure, abridged:
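TMD8 ABC-DLBCL cells carrying doxycycline-inducible green luciferase fused to IkappaBalpha plus unfused red luciferase were exposed to compounds (up to 46 uM) for 4 hrs at 37C. Activity came from the overlap-corrected green/red luminescence ratio.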
(In general: qHTS replaces the single test concentration by a dilution series.)

Where [1] appears, read: measured here: CBR red luminescence, cell number.
[2] abbreviates: measured here: IkBa-CBG green luminescence.

Values joined by “and” are separate entries in the source; they are usually repeats but may differ in a detail not shown here. Equal entries are not always repeated. The list shows a part of the results. Further columns of the screen follow, without active or inactive calls. The list favours compounds with an active or inconclusive main result. The note in brackets gives the kind of curve behind each potency; many fits are weak.

Consider `Cc1cccc(N2CC(C(=O)Nc3ccc(N4CCOCC4)cc3)CC2=O)c1C` (centres undefined), for which, under setting [1], the AC50 was 4.11 µM [rising, full curve].

With `CN(CC(=O)Nc1ccc(N2CCOCC2)cc1)C(=O)CSc1ccccc1F`, the AC50 under setting [1] was 0.058 µM [rising, full curve, poor fit].

As to `CC(C)NC(=S)N=Nc1c(O)[nH]c2ccc([N+](=O)[O-])cc12`, the AC50 under setting [1] is 6.31 µM [rising, partial curve] and the AC50 under setting [2] was 7.08 µM [falling, partial curve, poor fit].

Consider `COc1ccccc1CN(C)C(=O)c1cc(-c2cc(OC)c(OC)c(OC)c2)nc2ccccc12`, for which, under setting [1], the half-maximal activity concentration (AC50) was 14.1 µM [falling, single point].

As for `N#CCCN(CCC#N)S(=O)(=O)c1ccc(C(=O)Nc2nc(-c3ccccc3)c(C(=O)c3ccccc3)s2)cc1`, the AC50 under setting [1] was 1.12 µM [falling, full curve, poor fit].

With `COc1ccccc1N1CCN(CC(=O)Nc2ccc(-n3cnnn3)cc2)CC1`, under setting [1], the AC50 is 11.2 µM [rising, partial curve, poor fit].

As to `CC(Nc1ncnc2c1cnn2-c1cccc(Cl)c1)c1ccccc1` (centres undefined), the AC50 under setting [1] is 14.1 µM [falling, single point].

Turning to `CCOc1cc(/C=C2\C(=O)N(c3ccc(C(N)=O)cc3)N=C2C)ccc1OC(=O)c1cccs1`, the AC50 under setting [1] is 3.55 µM [falling, partial curve, poor fit].

On to `COc1cccc(OC)c1C(=O)Nc1nc(COc2ccccc2)cs1`, for which, under setting [1], the AC50 is 5.01 µM [falling, partial curve, poor fit].

For the compound `O=C(NC1CCCCC1)c1ccc(-c2ccccc2F)o1`, the AC50 under setting [1] was 20.6 µM [falling, partial curve, poor fit].

As to `CCOC(=O)NC(NCc1ccccc1)(C(F)(F)F)C(F)(F)F`, under setting [1], the AC50 is 23.1 µM [falling, single point].

Take `COc1ccc(-c2cnnc(N/N=C/c3ccc(O)c(OC)c3)n2)cc1`: under setting [1], the AC50 was 8.2 µM [falling, partial curve].

With `CCNc1nn2ccccc2c1/C=C(\C#N)C(=O)OCC`, the concentration at half-maximal activity (AC50) under setting [1] is 2.51 µM [falling, full curve, poor fit].

On to `COc1ccc2cc(C3OCCO3)c(Cl)nc2c1`, for which the AC50 under setting [1] is 6.31 µM [rising, single point].

Consider `COc1ccc(/C=C2\SC(=S)N(CCCC(=O)Nc3ccc(O)cc3)C2=O)cc1`, for which the concentration at half-maximal activity (AC50) under setting [1] is 1.12 µM [falling, full curve].

On to `CCOc1ccc(-c2csc(NC(=O)CSC3=NC(=O)CN3C(C)=O)n2)c2ccccc12`, for which the AC50 reads like this: under setting [1], 29.1 µM [rising, single point]; under setting [2], 18.4 µM [falling, single point].

For `Clc1ccc(Nc2ncnc3ccc(Br)cc23)cc1`, the AC50 under setting [1] is 35.5 µM [falling, single point].

Turning to `CCN(C(=O)CSc1nc2ccccc2c(=O)n1-c1ccc(C)cc1)C1CCS(=O)(=O)C1` (centres undefined), the AC50 under setting [1] is 11.2 µM [falling, partial curve, poor fit].

`Cc1noc(C)c1NC(=O)Nc1cccc2c1O[C@H](CN(C)C(=O)Nc1ccccc1)[C@@H](C)CN([C@H](C)CO)C2=O`: the AC50 under setting [1] was 0.184 µM [rising, full curve, poor fit].

For the compound `Cc1ccccc1OC1C(=O)N(Cc2ccc3c(c2)OCO3)C1c1sccc1C` (centres undefined), the AC50 reads like this: under setting [1], 7.08 µM [falling, partial curve, poor fit]; under setting [2], 11.2 µM [rising, partial curve, poor fit].

As to `COc1ccc(CCNC(=O)CCN2N=C(c3ccccc3)CCC2=O)cc1OC`, the AC50 under setting [1] is 15.8 µM [rising, single point].

For the compound `Cc1ccc(/C(N)=N/OC(=O)CCc2ccccc2)cc1`, the AC50 under setting [1] was 10 µM [rising, partial curve].

As for `O=c1c2ccccc2nnn1CSc1ccc2ccccc2n1`, the concentration at half-maximal activity (AC50) under setting [1] was 25.9 µM [falling, single point].

`COc1ccc(CNC(=O)CN2CCN(c3ccccc3O)CC2)cc1OC`: the concentration at half-maximal activity (AC50) under setting [1] was 3.16 µM [rising, single point].

Regarding `CCCOc1ccc2cc(-c3ccccn3)c(=O)oc2c1`, the AC50 under setting [1] was 3.66 µM [falling, partial curve, poor fit].

For `O=C(OCCN1CCOCC1)c1ccccc1`, the AC50 under setting [1] is 12.6 µM [rising, partial curve, poor fit].

For the compound `CC(C)(C)c1ccc(/C=N/Nc2ccc(C(=O)O)cc2)cc1`, the AC50 under setting [1] is 0.0731 µM [falling, full curve].

In the case of `COc1cccc(C(=O)NN/C(C)=C/C(=O)C(F)(F)C(F)(F)C(F)(F)F)c1`, the AC50 under setting [1] was 2.06 µM [falling, full curve].

`O=C(N/N=C/c1ccccn1)c1ccc(Cl)c(Cl)c1`: the concentration at half-maximal activity (AC50) under setting [1] is 3.55 µM [rising, single point] and the AC50 under setting [2] was 4.47 µM [falling, single point].

Consider `CCOC(=O)C1CCCN(C2CC(=O)N(c3cccc(C)c3)C2=O)C1` (centres undefined), for which the AC50 under setting [1] was 0.708 µM [falling, partial curve, poor fit].

In the case of `COc1ccc(CCNC(=O)c2cc(-c3ccccc3)on2)cc1OC`, the AC50 under setting [1] was 29.1 µM [falling, single point].

For the compound `O=C(NCCC1=CCCCC1)c1coc(=O)c(Br)c1`, the AC50 is 1.78 µM [rising, partial curve] under setting [1] and 14.1 µM [falling, partial curve, poor fit] under setting [2].

`CS(=O)(=O)N(CC(=O)Nc1ccccc1Sc1ccccc1)C1CCCCC1`: under setting [1], the AC50 was 0.00651 µM [falling, full curve].

In the case of `CC1=C(C(N)=O)C(c2cccc(OCc3ccccc3)c2)n2nnnc2N1` (centres undefined), the AC50 under setting [1] was 0.891 µM [falling, full curve, poor fit].

Consider `COc1ccc(N(C)C(=O)c2ccc3c(Cl)c4c(nc3c2)CCCC4)c(OC)c1`, for which the AC50 under setting [1] was 10 µM [falling, partial curve].

On to `O=S(=O)(c1ccc2c(c1)C(=NO)c1cc(S(=O)(=O)N3CCCCC3)ccc1-2)N1CCCCC1`, for which the concentration at half-maximal activity (AC50) under setting [1] is 0.501 µM [rising, full curve, poor fit].

Turning to `O=C(Oc1ccc2ccc(OC(=O)N3CCOCC3)cc2c1)N1CCOCC1`, the AC50 was 20.6 µM [rising, single point] under setting [1] and 29.1 µM [falling, partial curve, poor fit] under setting [2].

Regarding `Cc1ccccc1NC(=O)c1cc2ccccc2o1`, the AC50 under setting [1] is 3.98 µM [falling, partial curve] and 14.1 µM [falling, partial curve, poor fit].

By AC50 is commonly meant the concentration at which the activity in the assay is half-maximal.

(Values after PubChem BioAssay AID493014 (National Center for Advancing Translational Sciences (NCATS), 2011).)
